Taken from: PubChem BioAssay AID1259265 (Sanger Institute, 2017)

- Purpose: 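Validate synthetic lethal siRNA and anchor drug combinations in colorectal cancer cells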 (follow-up of hits)
- System: SW620 human colorectal cancer cells
- Knock-down reagent: single siRNA against human genes
- Treatment: anchor drug given a day after transfection: BYL719 at 1 µM, cetuximab at 5 µg/ml, trametinib at 10 nM; DMSO alone as the comparison arm
- Detection: 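Viability normalised to control pool 2 (non-targeting) and averaged over replicates; synergy score compares combined siRNA and drug effect against each effect alone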
- Direction: synergy score with trametinib: higher = stronger synergy (synthetic lethal) with trametinib; synergy score with BYL719: higher = stronger synergy (synthetic lethal) with BYL719; synergy score with cetuximab: higher = stronger synergy (synthetic lethal) with cetuximab
- Rule for the call: 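Synergistic (synthetic lethal) when the synergy score tops 0.10 with trametinib, BYL719 or cetuximab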
The whole screen tested 160 reagents; shown is a random part of them. 31 of them (19%) count as active. 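Calls refer to single siRNAs; agreement across several siRNAs per gene and other cell lines is not shown.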 The numbers tell different reagents against one gene apart. Not all columns of the deposit are shown. No sequences are given here. The record does not give: the amount of reagent, the time to read-out.

For IRAK1 #1, the entry reads synergy score with trametinib 0.304; synergy score with BYL719 = 0.0214; synergy score with cetuximab -0.122; active. After knock-down of IRAK1 #2 the results were synergy score with trametinib -0.111; synergy score with BYL719 = -0.0746; synergy score with cetuximab -0.174; inactive. For IRAK1 #3, the values are synergy score with trametinib 0.026; synergy score with BYL719 = 0.0805; synergy score with cetuximab -0.165; inactive. With knock-down of IRAK1 #4 the results were synergy score with trametinib -0.249; synergy score with BYL719 = 0.372; synergy score with cetuximab -0.129. Against MAPKAPK2 #1, the values are synergy score with trametinib -0.0711; synergy score with BYL719 = -0.0425; synergy score with cetuximab -0.2; inactive. With knock-down of MAPKAPK2 #2, the screen gave synergy score with trametinib -0.245; synergy score with BYL719 = -0.169; synergy score with cetuximab -0.198; inactive.

Silencing of MAPKAPK2 #3 gave: synergy score with trametinib -0.216; synergy score with BYL719 = -0.24; synergy score with cetuximab -0.15; inactive. Depletion of MAPKAPK2 #4 gave: synergy score with trametinib -0.186; synergy score with BYL719 = -0.109; synergy score with cetuximab -0.122; inactive. For PIM1 #1, the entry reads synergy score with trametinib 0.0891; synergy score with BYL719 = -0.115; synergy score with cetuximab -0.085; inactive. For PIM1 #2, the entry reads synergy score with trametinib 0.0511; synergy score with BYL719 = 0.0409; synergy score with cetuximab -0.157; inactive. With knock-down of PIM1 #3, the record shows synergy score with trametinib -0.215; synergy score with BYL719 = -0.372; synergy score with cetuximab -0.143; inactive. PIM1 #4 scored synergy score with trametinib -0.0316; synergy score with BYL719 = -0.0688; synergy score with cetuximab -0.122; inactive.
